assay: general procedure: Fmoc solid-phase peptide synthesis; Rink amide resin; HBTU/DIEA in DMF; PyBOP/DIEA for lactam formation; conditions: conjugation step, HPLC main peak %

Substance | conjugation yield
Ac-WVEHRLKGLLSQSGGVVR[hArg]K^(20kDa MeO-PEG)NFVPTDVGPFAF-amide | 61%
Ac-WVEHRLKGLLSRSGGVVRK^(20kDa MeO-PEG)NFVPTDVGPFAF-amide | 65%
Ac-WVEHRLKGLLS[Cit]SGGVVR[hArg]K^(20kDa MeO-PEG)NFVPTDVGPFAF-amide | 66%
Ac-WVEHRLKGLLS[hArg]SGGVVR[hArg]K^(20kDa MeO-PEG)NFVPTDVGPFAF-amide | 48%
Ac-WVEH[Cit]LKGLLS[Cit]SGGVVR[hArg]K^(20kDa MeO-PEG)NFVPTDVGPFAF-amide | 65%
Ac-WVEH[hArg]LKGLLS[Cit]SGGVVRK^(20kDa MeO-PEG)NFVPTDVGPFAF-amide | 59%
Ac-WVEH[hArg]LKGLLS[Cit]SGGVV[hArg]K^(20kDa MeO-PEG)NFVPTDVGPFAF-amide | 63%
Ac-WVTHQLAGLLSQSGGVV[hArg]K^(20kDa MeO-PEG)NFVPTDVGPFAF-amide | 72%
Ac-WVTHRLAGLASRPGGVVRK^(20kDa MeO-PEG)NFVPTDVGPFAF-amide | 80%
Ac-WVTHRLAGLASRSGGVVRK^(20kDa MeO-PEG)NFVPTDVGPFAF-amide | 68%
Ac-WVTHRLAGLAS[Cit]SGGVVRK^(20kDa MeO-PEG)NFVPTDVGPFAF-amide | 71%
Ac-WVTHRLAGLLPRSGGVVRK^(20kDa MeO-PEG)NFVPTDVGPFAF-amide | 55%
Ac-WVTHRLAGLLSRPGGVVRK^(20kDa MeO-PEG)NFVPTDVGPFAF-amide | 71%
Ac-WVTHRLAGLLSRSGGVVRK^(20kDa MeO-PEG)NFVPTDVGPFAF-amide | 67%
Ac-WVTHRLAGLLSRSGGVVR[4Apa]^(20kDa MeO-PEG)NFVPTDVGPFAF-amide | 78%
Ac-WVTHRLAGLLS[Cit]SGG VVRK^(20kDa MeO-PEG)NFVPTDVGPFAF-amide | 69%
Ac-WVTHRLEGLLKRSGGVVRK^(20kDa MeO-PEG)N FVPTDVGPFAF-amide | 60%
Ac-WVTHR[NMeLeu]AGLLSR[NMeSer]GGVVRK^(20kDa MeO-PEG)NFVPTDVGPFAF-amide | 66%
Ac-WVTH[Cit]LAGLASRPGGVVRK^(20kDa MeO-PEG)NFVPTDVGPFAF-amide | 61%
Ac-WVTH[Cit]LAGLAS[Cit]SGGVVRK^(20kDa MeO-PEG)NFVPTDVGPFAF-amide | 69%
Ac-WVTH[Cit]LAGLLPRSGGVVRK^(20kDa MeO-PEG)NFVPTDVGPFAF-amide | 67%

Substance | conjugation yield
Ac-WVTH[Cit]LAGLLSQSGGVVR[hArg]K^(20kDa MeO-PEG)NFVPTDVGPFAF-amide | 63%
Ac-WVTH[Cit]LAGLLSRPGGVVRK^(20kDa MeO-PEG)NFVPTDVGPFAFd | 64%
Ac-WVTH[Cit]LAGLLS[Cit]SGGVVRK^(20kDa MeO-PEG)NFVPTDVGPFAF-amide | 68%
Ac-WVTH[Cit]LAGLLS[Cit]SGGVV[Guf]K^(20kDa MeO-PEG)NFVPTDVGPFAF-amide | 58%
Ac-WVTH[Cit]LAGLLS[Cit]SGGVV[hArg]K^(20kDa MeO-PEG)NFVPTDVGPFAF-amide | 63%
Ac-WVTH[Cit]LAGLLS[Cit]SGGVV[hArg]K^(20kDa MeO-PEG)NFVPTDVGP[1-Nal]AF-amide | 66%
Ac-WVTH[Cit]LAGLLS[Cit]SGGVV[hArg]K^(20kDa MeO-PEG)NFVPTDVGP[Bip]AF-amide | 66%
Ac-WVTH[Cit]LAGLLS[Cit]SGGVV[hArg]K^(20kDa MeO-PEG)NFVPTDVGP[Igl]AF-amide | 61%
Ac-WVTH[Cit]LAGLLS[Cit]SGGVV[hArg]K^(20kDa MeO-PEG)NFVPTDVG[Oic]FAF-amide | 58%
Ac-WVTH[Cit]LAGLLS[Cit]SGGVV[hArg]K^(20kDa MeO-PEG)N[pl-Phe]VPTDVGP[pI-Phe]AF-amide | 59%
Ac-WVTH[Cit]LAGLLS[hArg]SGGVVR[hArg]K^(20kDa MeO-PEG)NFVPTDVGPFAF-amide | 61%
Ac-WVTH[hArg]LAGLLS[Cit]SGGVV[hArg]K^(20kDa MeO-PEG)NFVPTDVGPFAF-amide | 60%
Ac-WVTH[hArg]LAGLLS[Cit]SGGVV[hArg]K^(20kDa MeO-PEG)NFVPTDVGP[2-Nal]AF-amide | 70%
Ac-WVTH[hArg]LAGLLS[hArg]SGGVV[hArg]K^(20kDa MeO-PEG)NFVPTDVGPFAF-amide | 56%
Ac-WVTH[hArg]LAGLLS[hCit]SGGVV[hArg]K^(20kDa MeO-PEG)NFVPTDVGPFAF-amide | 61%
Ac-WVTH[hCit]LAGLLS[hArg]SGGVVR[hArg]K^(20kDa MeO-PEG)NFVPTDVGPFAF-amide | 63%
Ac-WVTH[hCit]LAGLLS[hCit]SGGVV[hArg]K^(20kDa MeO-PEG)NFVPTDVGPFAF-amide | 63%
Ac-[1-Nal]VEH[hArg]LKGLLS[Cit]SGGVVRK^(20kDa MeO-PEG)NFVPTDVGPFAF-amide | 66%
Ac-[1-Nal]VTH[Cit]LAGLLS[Cit]SGGVVRK^(20kDa MeO-PEG)NFVPTDVGPFAF-amide | 14%
Ac-[Aib]WVEH[hArg]LKGLLS[Cit]SGGVVRK^(20kDa MeO-PEG)NFVPTDVGPFAF-amide | 70%

Reference: US20090252703A1 (priority 2006, published 2009)
